# The list shows a part of the results.
# Amino acid sequences for entries named in this document (tags omitted).
# UniProt Q0JBA9, entry or part of it: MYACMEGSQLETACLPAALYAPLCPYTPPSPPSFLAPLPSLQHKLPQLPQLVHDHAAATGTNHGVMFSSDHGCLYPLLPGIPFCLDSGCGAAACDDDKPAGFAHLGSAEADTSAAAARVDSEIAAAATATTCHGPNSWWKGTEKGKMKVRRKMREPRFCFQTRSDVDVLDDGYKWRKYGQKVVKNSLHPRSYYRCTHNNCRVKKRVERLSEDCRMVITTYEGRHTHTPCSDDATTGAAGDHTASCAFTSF
# Target: OsWRKY34 (Oryza sativa, UniProt Q0JBA9 1-250)
# Assay: protein-binding microarray (RPBM); PBS, 2% BSA, 51.3 ng/ul salmon testes DNA, 50 uM zinc acetate, 200 nM TF, 25 C, 1 h; high values mean tight binding
# Conditions: protein: recombinant; tags: N-terminal polyhistidine and DsRed monomer fusion (pET32a); label: CyDye5-dUTP incorporated in the synthesized complementary strand; 3' TTTTT single-stranded linker to array surface; dsDNA, one strand shown
# Outline: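 Ni–NTA purification followed expression in E. coli BL21-CodonPlus of transcription factors fused N-terminally to a polyhistidine tag and DsRed. At 200 nM in PBS with 2% BSA, salmon testes DNA and 50 µM zinc acetate, the protein was incubated for 1 h at 25 °C with a custom Agilent array that had been primer-extended with Cy5-dUTP and blocked with 2% BSA. After washing, the array was read on an Axon 4000B scanner. The binding signal is per-feature fluorescence intensity in arbitrary units.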
row,Sequence,binding signal
1,GTACATATCTCGTATTCTCATTATGTGGTTGTTTAAATCCCGGAGTCACCTAGTGCAG,8660 fluorescence intensity (a.u.)
2,TATATTTTTACTTTGGTCAAAGTTAGACTGTTTTATGTTTCGGAGTCACCTAGTGCAG,13400 fluorescence intensity (a.u.)
3,AACTAACCTTATAGATCGACACATCTCGTCCACGCTTAGTCGGAGTCACCTAGTGCAG,8470 fluorescence intensity (a.u.)
4,GCTGCAGCTGCCATCCACCCACAGAACCCACTTGCATTATCGGAGTCACCTAGTGCAG,9120 fluorescence intensity (a.u.)
5,TACCACCCCGAGCTGAGTCCTCTCGCCATCATCCTCCTATCGGAGTCACCTAGTGCAG,9700 fluorescence intensity (a.u.)
6,GCCACGTAGGACGGTCAATCCGGTCAAATGTGCTTTGGACCGGAGTCACCTAGTGCAG,9540 fluorescence intensity (a.u.)
7,CTACAGTGCGTACATCCTAACTATTAGGGCGTTATCTTTTCGGAGTCACCTAGTGCAG,9170 fluorescence intensity (a.u.)
8,TTCCAATCCTTGCCACGCCCACCGCAGACCAAAGCCGCGCCGGAGTCACCTAGTGCAG,8540 fluorescence intensity (a.u.)
9,AGGCCACCACCACTCACTCCTTCAACTTCAATGGCAGCTCCGGAGTCACCTAGTGCAG,8090 fluorescence intensity (a.u.)
10,TGGTGGTGAGGAGGAGGAGGAGGAGGGCGGGGTCGTCGTCCGGAGTCACCTAGTGCAG,16200 fluorescence intensity (a.u.)
11,GTTTAGTGTTTTAGTTGCCTTTATCAATGATATTGCGTGCCGGAGTCACCTAGTGCAG,8980 fluorescence intensity (a.u.)
12,GACACTAATTTAGGACGAATGCATTATACTGCTTCTCATACGGAGTCACCTAGTGCAG,9420 fluorescence intensity (a.u.)
13,TTGCATCAACTTCCTCCTTTTCTTTCTCGCTTTCGCTCTTCGGAGTCACCTAGTGCAG,9000 fluorescence intensity (a.u.)
14,ACCTGCTTACTAGTTACTACCCGTCCGCCTCGATCTTACCCGGAGTCACCTAGTGCAG,9330 fluorescence intensity (a.u.)
15,GGTGTGGTTGGTTCGATATTTAAGACCTTTTAATCCAAAGCGGAGTCACCTAGTGCAG,11400 fluorescence intensity (a.u.)
16,TGTTCTTATGTTCAACTCCCGGGACACTGTTCATCATACGCGGAGTCACCTAGTGCAG,8760 fluorescence intensity (a.u.)
17,TTACTTATCTCTCTAGTACTCCTACTACTGCTAGTGTGCTCGGAGTCACCTAGTGCAG,8030 fluorescence intensity (a.u.)
18,CTCCCTGCTTGTATGTCACTCTACACTTGATTTATCTTAACGGAGTCACCTAGTGCAG,8940 fluorescence intensity (a.u.)
19,ATCTCACCTCCCATATCTTATTTGCCAAACACACCCTTCCCGGAGTCACCTAGTGCAG,8260 fluorescence intensity (a.u.)
20,AACCATATCATTTCATAGCCATTTATTTTAACTTATATCCCGGAGTCACCTAGTGCAG,9590 fluorescence intensity (a.u.)
21,AGACAGCTTCTCAATTTGTTTCTTTGGCCCTGATTTCCTTCGGAGTCACCTAGTGCAG,9000 fluorescence intensity (a.u.)

row,Sequence,binding signal
1,TTCCTGTTCGACTGCGTCGCCGAGTTCTTCGCCGAACTCCCGGAGTCACCTAGTGCAG,8420 fluorescence intensity (a.u.)
2,ACTGTTTTCACACATTGTACTTCCTGGATCTGTTGTGCTCCGGAGTCACCTAGTGCAG,8940 fluorescence intensity (a.u.)
3,AGTCCACAATTTATATAGCAAGCATTCTTTCTCCTTCGGTCGGAGTCACCTAGTGCAG,8110 fluorescence intensity (a.u.)
4,GTGGTGGTGGTGGACTGGTGGTGGCGGCTAGCGAGATAATCGGAGTCACCTAGTGCAG,16200 fluorescence intensity (a.u.)
5,AAATTTTTGACATGATTTTGGAGTTGTGTGTAGCCGCCACCGGAGTCACCTAGTGCAG,8130 fluorescence intensity (a.u.)
6,GCCGCCTTGCACCTGCCTGCTCTGCGCCGCATGCCGCCACCGGAGTCACCTAGTGCAG,8560 fluorescence intensity (a.u.)
7,ACTATAATACTGTCTCTATTTTTGTTGATATATAGTATCTCGGAGTCACCTAGTGCAG,9120 fluorescence intensity (a.u.)
8,TAGTGTCTCTTATTCCCACGGAACGATTTTCTTTCTTATCCGGAGTCACCTAGTGCAG,11200 fluorescence intensity (a.u.)
9,CTACGTATCAGTACAACCCATATGTCAGTCACATATAGAACGGAGTCACCTAGTGCAG,8430 fluorescence intensity (a.u.)
10,AGCATCCGCAAGAATTGTCAATTTCCCTGCCTATTAATCTCGGAGTCACCTAGTGCAG,8320 fluorescence intensity (a.u.)
11,TTTTTGATCTGTCCCGATTTGTAACTTTTTCATTTCTTTTCGGAGTCACCTAGTGCAG,10900 fluorescence intensity (a.u.)
12,GGGAGGTGTGGTCGGTGCCGGGGACGTCGCACGGTGTGGACGGAGTCACCTAGTGCAG,10600 fluorescence intensity (a.u.)
13,CATCATGCTCATGCTTTCTGAACTGCTTGCGCATCCGTATCGGAGTCACCTAGTGCAG,9170 fluorescence intensity (a.u.)
14,AACTCGGCCATCTCAACTTCTTGGTCAACCAGTTATTATACGGAGTCACCTAGTGCAG,9640 fluorescence intensity (a.u.)
15,GTGGAGTGGAGCTGAAGCCCCGCTAGGATCGCCTTTTTTCCGGAGTCACCTAGTGCAG,9840 fluorescence intensity (a.u.)
16,TTTTGCTTCTCCTGCGTCCTGCCTCTCTCGTTTCTGTAAGCGGAGTCACCTAGTGCAG,11800 fluorescence intensity (a.u.)
17,GATATGAAATCTCGCATTGTTTGGTACTATTCGTTCCAGACGGAGTCACCTAGTGCAG,8660 fluorescence intensity (a.u.)
18,GCCACCACCACCCACCGCCGCCGCCGCCACCGCAAACTCTCGGAGTCACCTAGTGCAG,8050 fluorescence intensity (a.u.)
19,CACGAGGTGATTTAATTTGGTTGTGTTTCAGCTTTTTAAACGGAGTCACCTAGTGCAG,9360 fluorescence intensity (a.u.)
20,TCTTCCACCTGCCTTGTGCGTCCCTTCTAACTCACCTTGTCGGAGTCACCTAGTGCAG,8310 fluorescence intensity (a.u.)
21,GGGGTGACATTTCAATTGTTTTTCTCTTATATTTGTAATCCGGAGTCACCTAGTGCAG,20100 fluorescence intensity (a.u.)

# An excerpt of the results above, as a working copy:
row,Sequence,binding signal
1,TTCCTGTTCGACTGCGTCGCCGAGTTCTTCGCCGAACTCCCGGAGTCACCTAGTGCAG,8420 fluorescence intensity (a.u.)
2,ACTGTTTTCACACATTGTACTTCCTGGATCTGTTGTGCTCCGGAGTCACCTAGTGCAG,8940 fluorescence intensity (a.u.)
3,AGTCCACAATTTATATAGCAAGCATTCTTTCTCCTTCGGTCGGAGTCACCTAGTGCAG,8110 fluorescence intensity (a.u.)
4,GTGGTGGTGGTGGACTGGTGGTGGCGGCTAGCGAGATAATCGGAGTCACCTAGTGCAG,16200 fluorescence intensity (a.u.)
5,AAATTTTTGACATGATTTTGGAGTTGTGTGTAGCCGCCACCGGAGTCACCTAGTGCAG,8130 fluorescence intensity (a.u.)
6,GCCGCCTTGCACCTGCCTGCTCTGCGCCGCATGCCGCCACCGGAGTCACCTAGTGCAG,8560 fluorescence intensity (a.u.)
7,ACTATAATACTGTCTCTATTTTTGTTGATATATAGTATCTCGGAGTCACCTAGTGCAG,9120 fluorescence intensity (a.u.)
